B1: anti-NV Fab B7 (Fab, V domains shown)
VH: EVQLEESGGDLVQPGGSLTLSCAASGFTFSRYWMSWVRQAPGKGPEWVASIKKDGSETFYADSVKGRFIISRDIAKTSLYLQMNSLRADDTAVYYCLRAWYSSAYDFWGQGTLVTVS
VL: ELELTQSPSSLSASVGDRVTITCRASQSISNYLNWYQQKPGKAPNLLIYYASTLQSGVPSRFSGSGSGTDFTLTISSLQPEDFATYYCQHGYGAIAFGQGTRLEIKR
B2: anti-NV Fab F11 (Fab, V domains shown)
VH: EVQLVETGGSLVQPGGSLRLSCAASGFSVSIYHMSWVRQAPGKGLEWVSLLYSGGSTYYADSVKGRFTISRDNSKNTLYLQMNSLRAEDTAVYYCARDYSGSWVGDEARSYYYYYYMDVWGKGTTVTVS
VL: ELQVTQSPSSLSASVGDRVTITCQASQDISYYLNWYQQRPGKVPKLLIYSASYLHSGVPSRFSGSGSGTDFTLTISSLQPEDVATYYCQRTYNAPYTFGQGTKVEIKR
B3: anti-NV Fab E5 (Fab, V domains shown)
VH: EVQLEQSGGGLIKPGGSLRLSCAASGFTFTKYVMHWVRQAPEKGLQWVSAIGGSGGSAWYADSVKGRFTISRDNSKNTLYLQMNSLRAEDTAVYYCARDHARYSGYNSPHEVDSWGQGTLVAVS
VL: ELELTQSPSSLSASVGDRVTITCRASQGISNYLAWYQQKPGKVPKLLIYAASTLQSGVPSRFSGSGSGTDFTLTISSLQPEDVATYYCQKYNSAPLTFGGGTKVEIKR
notes: also called ES [sic]
B4: anti-NV Fab D8 (Fab, V domains shown)
VH: EVQLEESGGGLVQPGGSLRVSCAASGFPFNGYWIHWVRQAPGKGLEWVSRVNSDGRITNFADSVMGRFTMSRDNAKSTVYLQMNSLRAEDTAMYYCSRGGYTGYPEGHWGQGTLVTVS
VL: ELQMTQSPSSLSAAVGDSVTITCRASQGISIHLAWYQQKPGKVPNLLIYAASTLQSGVPSRFSGSGSGTDFTLTINSLQPEVFATYYCQKYDSAPFTFGPGTKVDIKR
B5: anti-NV Fab G4 (Fab, V domains shown)
VH: EVQLEESGGGLVKPGGSLRLSCAASGFTFSHYVMYWVRQAPEKGLEWVSTISGSGSSTWYPDSVKGRFTVSRDNSKNTLYLQMNSLRGDDTAVYYCARLQGQLVYWGLGTLVTVS
VL: ELQMTQSPSTLSASVGDRVTITCRASQGISSWLAWYQQKPGRAPKLLIYKSSTLESGVPSRFSGSGSGTEFTLTISSLQPDDFATYFCQQYSSNPPLTFGGGTKVEIKR
notes: also called Norwalk Fab G4

These are yes or no findings as the source states them, for the method shown.

One assay has as its target lysozyme. Briefly: ELISA, antigen on the solid phase, soluble Fab.
Regarding B1, the binding entry was “no binding”.

On to B2, for which the binding result is “no binding”.

Turning to B3, the binding entry was “no binding”.

Turning to B4, the binding entry is given as “no binding”.

For the molecule B5, the binding result is reported as “no binding”.

The target in a further assay is phosphorylase b. As to the kind of experiment: ELISA, antigen on the solid phase, soluble Fab.
On to B1, for which the binding result is given as “no binding”.

On to B2, for which the binding entry was “no binding”.

For the molecule B3, the binding result was “no binding”.

For the molecule B4, the binding result is recorded as “no binding”.

Consider B5, for which the binding entry was “no binding”.

For a further assay, the target named is thyroglobulin. As to the kind of experiment: ELISA, antigen on the solid phase, soluble Fab.
On to B1, for which the binding result is listed as “no binding”.

Turning to B2, the binding result is given as “no binding”.

Turning to B3, the binding entry is reported as “no binding”.

On to B4, for which the binding result is reported as “no binding”.

As to B5, the binding entry is given as “no binding”.

The target in a further assay is lysozyme. As to the kind of experiment: condition: about 300 ng/ml (last point, right of the 100 tick); ELISA, antigen coated directly on the plate.
As to B4, the binding entry is reported as “no binding”.

The target in another assay is phosphorylase b. The description is as above.
Turning to B4, the binding result is reported as “no binding”.

For a further assay, the target named is thyroglobulin. Described as above.
As to B4, the binding entry was “no binding”.

(Values after patent publication US20160009788A1 (UNITED STATES OF AMERICA AS REPRESENTED BY THE SECRETARY …, published 2016).)
